Laboratory results reported in PMC10865702.
Results are given in words; binding and its absence hold for the method and conditions named. In cells and extracts the contact can be indirect. A result given as binding can be weak or reduced; the word gives no strength.

Sequences of proteins named here, by UniProt entry; tags and fusion partners are left off. A change or cut given only in a name is not applied to a line headed by its entry.
UniProt P52565: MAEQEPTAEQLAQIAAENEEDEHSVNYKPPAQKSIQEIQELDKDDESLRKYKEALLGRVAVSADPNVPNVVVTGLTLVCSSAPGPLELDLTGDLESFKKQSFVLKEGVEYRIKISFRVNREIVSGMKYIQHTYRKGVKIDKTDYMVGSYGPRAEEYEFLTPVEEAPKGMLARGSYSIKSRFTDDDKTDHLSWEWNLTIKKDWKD
UniProt P53350: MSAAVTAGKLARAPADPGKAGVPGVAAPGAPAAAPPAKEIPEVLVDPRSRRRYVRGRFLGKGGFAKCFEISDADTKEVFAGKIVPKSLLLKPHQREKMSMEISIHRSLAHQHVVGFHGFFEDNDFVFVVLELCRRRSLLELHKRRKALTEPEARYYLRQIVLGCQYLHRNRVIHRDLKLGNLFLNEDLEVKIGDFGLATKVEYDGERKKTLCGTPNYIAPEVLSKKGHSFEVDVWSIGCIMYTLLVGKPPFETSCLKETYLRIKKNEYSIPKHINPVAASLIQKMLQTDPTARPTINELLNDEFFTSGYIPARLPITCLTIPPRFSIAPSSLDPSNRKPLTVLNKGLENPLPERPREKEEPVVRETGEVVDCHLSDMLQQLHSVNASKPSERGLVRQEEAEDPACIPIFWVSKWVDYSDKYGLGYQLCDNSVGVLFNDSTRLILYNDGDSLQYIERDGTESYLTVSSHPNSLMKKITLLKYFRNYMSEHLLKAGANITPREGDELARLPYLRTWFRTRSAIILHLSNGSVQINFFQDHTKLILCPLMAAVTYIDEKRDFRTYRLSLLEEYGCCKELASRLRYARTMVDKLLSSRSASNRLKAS

Biological target: GST-RhoGDI1 truncation mutant aa 68-201 (human) (UniProt P52565)
Experiment: pull-down; GST-RhoGDI1 (wt or truncation mutants) or GST on GSH-beads, washed, incubated with His-PLK1 expression lysate (E. coli) at 4 °C overnight; immunoblot with PLK1 and GST antibodies; only the target purified

binding: binds
Substance: His-fused PLK1 (from UniProt P53350 1-603) (enzyme)
